Data taken from paper PMC11449838.

Amino acid sequences for entries named in this document (tags omitted). A change or cut given only in a name is not applied to a line headed by its entry.
UniProt P09038: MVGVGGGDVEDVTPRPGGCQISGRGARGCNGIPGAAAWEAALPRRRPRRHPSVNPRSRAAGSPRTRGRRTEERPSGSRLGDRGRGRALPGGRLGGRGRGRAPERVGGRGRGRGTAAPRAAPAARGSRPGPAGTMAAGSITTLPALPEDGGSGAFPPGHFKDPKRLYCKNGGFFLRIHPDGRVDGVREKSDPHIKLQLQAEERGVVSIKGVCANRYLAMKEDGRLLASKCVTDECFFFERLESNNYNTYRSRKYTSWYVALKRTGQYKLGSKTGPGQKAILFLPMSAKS

How the values were obtained:
[1] = biological target: fibroblast growth factor 2 (FGF2) (human (endogenous in MCF-7)) (UniProt P09038); assay: co-IP; reverse co-IP: MCF-7 cell lysates immunoprecipitated for FGF2 with antibody-coupled agarose beads, Western blot for YTHDF3; IgG as negative control
[2] = biological target: T1, FLAG-tagged YTHDF3 mutant (W438A, W492A in the YTH domain) (UniProt Q7Z739); assay: co-IP; MCF-7 cell lysates (1 x 10^7 cells), immunoprecipitated by the Flag tag of YTHDF3 with antibody-coupled agarose beads, Western blot for FGF2; IgG as negative control
T1 sequence: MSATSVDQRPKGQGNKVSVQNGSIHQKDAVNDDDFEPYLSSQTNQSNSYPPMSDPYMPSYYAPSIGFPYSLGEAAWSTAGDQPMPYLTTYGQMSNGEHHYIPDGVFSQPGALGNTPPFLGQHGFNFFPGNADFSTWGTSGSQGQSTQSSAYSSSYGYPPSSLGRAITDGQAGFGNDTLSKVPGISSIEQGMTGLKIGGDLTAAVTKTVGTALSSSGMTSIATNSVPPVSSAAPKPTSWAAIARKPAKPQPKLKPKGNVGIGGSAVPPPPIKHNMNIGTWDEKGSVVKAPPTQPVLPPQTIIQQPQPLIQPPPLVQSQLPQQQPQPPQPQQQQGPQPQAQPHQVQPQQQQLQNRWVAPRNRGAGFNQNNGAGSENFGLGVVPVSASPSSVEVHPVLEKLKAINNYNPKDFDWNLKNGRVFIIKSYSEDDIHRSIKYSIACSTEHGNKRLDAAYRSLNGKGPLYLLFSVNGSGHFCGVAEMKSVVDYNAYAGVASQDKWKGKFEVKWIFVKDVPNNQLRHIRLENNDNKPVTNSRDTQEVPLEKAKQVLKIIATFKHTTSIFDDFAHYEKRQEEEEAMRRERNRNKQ

[3] = biological target: FLAG-tagged wild-type YTHDF3 (YTH N6-methyladenosine RNA binding protein 3) (UniProt Q7Z739); assay: as above

FLAG-tagged wild-type YTHDF3 (YTH N6-methyladenosine RNA binding protein 3) (from UniProt Q7Z739 1-585)
binding [1]: binds

fibroblast growth factor 2 (FGF2) (from UniProt P09038)
binding [2]: binds
binding [3]: binds

These are yes or no findings as the source states them, for the method shown. Binding seen in cells or lysates may run through a third protein. Binding calls can cover weak binding; strength is not graded here. For part of these data: Tags and fused reporters may be left off the sequences shown.
